Reference: the supplement of paper PMC6078165
Values are relative to the signal before dosing, not to a vehicle control; the signal also falls without drug.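 Fibroblast labels name human fibroblasts: mostly primary ones from tissues such as uterus (C12385, HUF), lung (H6013), bone (Hs27A), adrenal (HADF) and skin (WS1), plus mammary HMF and breast cancer-associated Hs343T. The cancer cells are basal-like or mesenchymal-like triple-negative breast cancer lines. The paper calls a changed response a hit when it shifts by more than 3x the replicate standard deviation. The tissue of the other fibroblasts is not given here.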

System: HCC1143
Experiment: relative JC-1 red fluorescence (viability) vs pre-drug, coculture with fibroblast (fraction); higher = more viable cancer cells
Method: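 JC-1 labelled TNBC cells cocultured 1:1 (1,500 cells each) with CellTrace Violet stained primary or stromal fibroblasts in 384-well plates in FluoroBrite medium, treated with one of 42 anticancer drugs at 0.1, 1, 10 or 100 uM. JC-1 red fluorescence (mitochondrial integrity in cancer cells only) was read by plate reader every 8 h for 72 h. Values are normalised to each well's pre-drug value. The stock of one drug was tenfold lower, so its dose labels may be too high.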

CCCCCOC(=O)Nc1nc(=O)n([C@@H]2O[C@H](C)[C@@H](O)[C@H]2O)cc1F [Capecitabine]
relative JC-1 red fluorescence
Details	8 h	16 h	24 h	32 h	40 h	48 h	56 h	64 h	72 h
0.1 µM, coculture fibroblast: C12385	0.838	0.74	0.651	0.5794	0.5128	0.4487	0.405	0.358	0.3352
0.1 µM, coculture fibroblast: H6013	0.7287	0.6665	0.638	0.638	0.553	0.542	0.508	0.492	0.476
0.1 µM, coculture fibroblast: H6019	0.8	0.70467	0.649	0.578	0.538	0.502	0.454	0.401	0.363
0.1 µM, coculture fibroblast: H6076	0.81	0.837	0.7649	0.676	0.662	0.633	0.587	0.549	0.551
0.1 µM, coculture fibroblast: H6231	0.862	0.875	0.761	0.649	0.649	0.615	0.569	0.525	0.501
0.1 µM, coculture fibroblast: HADF	0.7178	0.65	0.618	0.613	0.5164	0.496	0.454	0.425	0.411
0.1 µM, coculture fibroblast: HCFa	0.774	0.702	0.669	0.642	0.564	0.538	0.486	0.455	0.422
0.1 µM, coculture fibroblast: HCPF	0.83	0.776	0.7295	0.659	0.6335	0.608	0.567	0.53	0.516
0.1 µM, coculture fibroblast: HHSteC	0.794	0.698	0.658	0.605	0.516	0.491	0.442	0.413	0.371
0.1 µM, coculture fibroblast: HMF	0.7984	0.855	0.773	0.63	0.649	0.606	0.559	0.518	0.484
0.1 µM, coculture fibroblast: HPFa	0.906	0.79	0.744	0.6489	0.5736	0.534	0.477	0.428	0.382
0.1 µM, coculture fibroblast: HUF	0.861	0.778	0.752	0.694	0.661	0.643	0.6	0.572	0.549
0.1 µM, coculture fibroblast: Hs5	0.8951	0.917	0.871	0.8326	0.775	0.739	0.703	0.666	0.652
0.1 µM, coculture fibroblast: Hs27A	0.6766	0.587	0.552	0.567	0.435	0.416	0.367	0.335	0.313
0.1 µM, coculture fibroblast: Hs343T	0.836	0.85	0.788	0.705	0.685	0.66	0.615	0.575	0.55
0.1 µM, coculture fibroblast: WS1	0.813	0.733	0.681	0.5951	0.533	0.488	0.448	0.407	0.378
1 µM, coculture fibroblast: C12385	0.87	0.747	0.683	0.622	0.555	0.516	0.48	0.446	0.436
1 µM, coculture fibroblast: H6013	0.781	0.693	0.663	0.662	0.593	0.586	0.551	0.531	0.486
1 µM, coculture fibroblast: H6019	0.801	0.701	0.655	0.596	0.555	0.536	0.493	0.446	0.421
1 µM, coculture fibroblast: H6076	0.82	0.794	0.7388	0.675	0.6456	0.627	0.597	0.574	0.569
1 µM, coculture fibroblast: H6231	0.8295	0.779	0.68	0.627	0.591	0.562	0.526	0.497	0.477
1 µM, coculture fibroblast: HADF	0.741	0.641	0.62	0.624	0.544	0.527	0.492	0.467	0.45
1 µM, coculture fibroblast: HCFa	0.7386	0.626	0.583	0.554	0.461	0.431	0.38	0.352	0.323
1 µM, coculture fibroblast: HCPF	0.8164	0.832	0.7605	0.63	0.6666	0.6233	0.5706	0.534	0.5072
1 µM, coculture fibroblast: HHSteC	0.917	0.87	0.856	0.85	0.808	0.791	0.748	0.723	0.648
1 µM, coculture fibroblast: HMF	0.8229	0.837	0.753	0.636	0.634	0.606	0.5423	0.5151	0.48
1 µM, coculture fibroblast: HPFa	0.9054	0.7956	0.767	0.673	0.615	0.575	0.51	0.468	0.427
1 µM, coculture fibroblast: HUF	0.87077	0.758	0.709	0.643	0.599	0.575	0.527	0.487	0.46
1 µM, coculture fibroblast: Hs5	0.874	0.81	0.78	0.754	0.68	0.653	0.624	0.595	0.587
1 µM, coculture fibroblast: Hs27A	0.715	0.642	0.594	0.604	0.497	0.5	0.4524	0.4271	0.38
1 µM, coculture fibroblast: Hs343T	0.809	0.784	0.7174	0.627	0.594	0.554	0.509	0.487	0.46
1 µM, coculture fibroblast: WS1	0.854	0.736	0.682	0.599	0.543	0.501	0.456	0.408	0.381
